Melanoma cell counts after drug treatment

From a melanoma drug combination screen (doi:10.1371/journal.pone.0140310); values rounded.

Every entry is a combination with GW441756 at 400 nM: Cn1cc(/C=C2\C(=O)Nc3cccnc32)c2ccccc21

Drugs:
FK866: O=C(/C=C/c1cccnc1)NCCCCC1CCN(C(=O)c2ccccc2)CC1 at 10 nM
cisplatin: N.N.[Cl][Pt][Cl] at 1600 nM
ruxolitinib: N#CC[C@H](C1CCCC1)n1cc(-c2ncnc3[nH]ccc23)cn1 at 1000 nM
PLX4720: CCCS(=O)(=O)Nc1ccc(F)c(C(=O)c2c[nH]c3ncc(Cl)cc23)c1F at 80 nM
A-769662: N#Cc1c(O)c2c(-c3ccc(-c4ccccc4O)cc3)csc2[nH]c1=O at 2000 nM
vismodegib: CS(=O)(=O)c1ccc(C(=O)Nc2ccc(Cl)c(-c3ccccn3)c2)c(Cl)c1 at 1000 nM
KU-0063794: COc1ccc(-c2ccc3c(N4CCOCC4)nc(N4C[C@@H](C)O[C@@H](C)C4)nc3n2)cc1CO at 20 nM
stibogluconate: O=C(O)[C@@H]1[O][Sb](=[O])([O][Sb]2(=[O])[O][C@H]([C@H](O)CO)[C@H](O)[C@H](C(=O)O)[O]2)[O][C@H]([C@H](O)CO)[C@@H]1O (stereo partly specified) at 2000 nM
crizotinib: C[C@@H](Oc1cc(-c2cnn(C3CCNCC3)c2)cnc1N)c1c(Cl)ccc(F)c1Cl at 200 nM
sorafenib: CNC(=O)c1cc(Oc2ccc(NC(=O)Nc3ccc(Cl)c(C(F)(F)F)c3)cc2)ccn1 at 400 nM
lestaurtinib: C[C@]12O[C@H](C[C@]1(O)CO)n1c3ccccc3c3c4c(c5c6ccccc6n2c5c31)CNC4=O at 4 nM
tozasertib: Cc1cc(Nc2cc(N3CCN(C)CC3)nc(Sc3ccc(NC(=O)C4CC4)cc3)n2)n[nH]1 at 6 nM
dovitinib: CN1CCN(c2ccc3nc(-c4c(N)c5c(F)cccc5[nH]c4=O)[nH]c3c2)CC1 at 100 nM
RKI-983: C[C@@H](N)c1ccc(C(=O)Nc2ccnc3[nH]ccc23)cc1 at 400 nM
AS-252424: O=C1NC(=O)/C(=C/c2ccc(-c3ccc(F)cc3O)o2)S1 at 1000 nM
darinaparsin: C[As](C)SC[C@H](NC(=O)CC[C@H](N)C(=O)O)C(=O)NCC(=O)O at 400 nM
embelin: CCCCCCCCCCCC1=C(O)C(=O)C=C(O)C1=O at 1200 nM

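Human melanoma cells were exposed to a pair of drugs for 72 h in 1,536-well plates and read by automated microscopy after fixing and staining. Each value is the count of nuclei relative to DMSO-treated wells, in %, so that 100 equals the control. Concentrations were fixed for each drug; these are the lower of two levels, a fifth of the higher. No replicate spread is given; individual values may be noisy.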
Only some of the drugs and lines screened are listed, without regard to their results.
A dash means that no value is listed here.

Partner,A101D,501mel,C32,A2058,A375
stibogluconate,100,103,113,91.6,-
sorafenib,97.5,88.1,93.9,99.4,-
embelin,103,107,104,104,91.5
PLX4720,89.4,119,78.8,104,-
FK866,79.7,85.6,90.8,118,-
RKI-983,102,77.6,70.1,88.5,-
AS-252424,97.4,103,107,105,103
dovitinib,87.2,84.5,96.6,107,-
tozasertib,94.7,98.3,98.5,86.6,-
vismodegib,108,85.4,114,98.8,-
cisplatin,73.6,82.9,94.4,105,-
KU-0063794,86.8,-,90.8,89.2,102
A-769662,126,121,119,98.0,105
crizotinib,104,98.3,92.9,101,-
darinaparsin,103,-,102,112,98.0
ruxolitinib,113,84.1,100,85.5,-
lestaurtinib,99.9,83.5,103,100,-